The whole screen tested about 330,000 compounds, of which about 1,000 (0.3%) were called active. This list was built around the results that the source calls inconclusive (neither active nor inactive); the mix of calls is not that of the screen. Calls follow the shape of the dose curve; as a rule, active = well fitted inhibition curve with a large enough effect; inconclusive = small, poorly fitted or top-dose-only effect; inactive = no such curve, though single readings can be large or run the other way; tested in mouse RAW 264.7 cells. Where the call is inconclusive, the potency comes from a doubtful curve fit.
Test: qHTS for Inhibitors of Cell Surface uPA Generation; also: nearly all actives have a fitted effect of over 55% in size
Conditions: cell surface uPA generation assay; series mostly up to 38.3 µM
Summary of the method: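 Using RAW 264.7 macrophages, the screen measures whether compounds keep cellular ATP up by preventing uPA-driven LF translocation. Treatment lasted 24 h at 37 C, with a final top concentration of 38.3 uM, and luminescence was the readout.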
Potency is read from the fitted curve at half-maximal effect.

Row | SMILES | Potency
1 | C/[N+]([O-])=C\c1ccc([N+](=O)[O-])o1 | inconclusive: 8.91 µM [inhibitor, partial curve, poor fit]
2 | CC(C)(C)OC(=O)N(CCc1ccccc1)Cc1cccc(OCc2cccc(NC(=O)C3CC3)c2)c1 | inconclusive: 15.8 µM [inhibitor, single point]
3 | CCN1C(=O)[C@H]2[C@@H](c3ccc(-c4ccc(C(C)=O)cc4)c(OC)c3)N[C@@](Cc3ccccc3)(C(=O)OC)[C@H]2C1=O | inconclusive: 3.98 µM [inhibitor, partial curve, poor fit]
4 | COc1cc(C(=O)NCC(=O)N2CCN(S(=O)(=O)c3cc(C)ccc3C)CC2)cc(OC)c1OC | active: 2.24 µM
5 | C[C@]12c3[nH]c4cc(-c5ccco5)ccc4c3CCN1C(=O)[C@@H](CC(=O)NCCc1ccccn1)C[C@@H]2C(=O)N1CCCCC1 | inconclusive: 11.2 µM [inhibitor, partial curve, poor fit]
6 | O=C(NNC(=O)c1ccncc1)Nc1ccc([N+](=O)[O-])cc1 | inactive
7 | CC(=O)c1sc(NC(=O)C2COc3ccccc3O2)nc1C (stereo unspecified) | inconclusive: 11.2 µM [inhibitor, partial curve, poor fit]
8 | COc1c(OC(C)=O)ccc(/C=C/c2ccc3cccc(OC)c3n2)c1[N+](=O)[O-] | inactive
9 | O=C1/C(=C/c2ccc(Cl)cc2)SC(=S)N1CCC(=O)N1CCCCC1CCO (stereo unspecified) | inconclusive: 6.31 µM [inhibitor, partial curve, poor fit]
10 | COc1ccc(C(=O)CCC(=O)N2CCN(c3ccc(C)cc3)C(C)C2)cc1 (stereo unspecified) | inactive
11 | CCC(C(=O)NCc1ccccc1OC)c1ccccc1 (stereo unspecified) | inconclusive: 6.31 µM [inhibitor, partial curve, poor fit]
12 | Cc1[nH]c2ccccc2c1C(=O)CSC(=S)N1CCN(C)CC1 | inconclusive: 1.12 µM [inhibitor, full curve, poor fit]
13 | C=CCNC(=S)Nc1sc2c(c1C#N)CCCC2 | inactive
14 | COc1cc(OC)cc(C(=O)N[C@H](C(=O)Nc2nc3c(s2)CCCC3)C(C)C)c1 | inconclusive: 8.91 µM [inhibitor, single point]
15 | O=C(/C=C/c1ccccc1)Nc1cccc(C(=O)NCCc2ccccc2)c1 | inconclusive: 10 µM [inhibitor, single point]
16 | Cc1ccc(-c2nc(CSCC(=O)N3CCN(c4ccccn4)CC3)c(C)o2)cc1 | inconclusive: 28.2 µM [inhibitor, single point]
17 | Cc1cc2nc(C3CCN(CC4COc5ccccc5O4)CC3)[nH]c2cc1C (stereo unspecified) | inconclusive: 12.6 µM [inhibitor, single point]
18 | O=c1oc2ccc(Cl)cc2nc1/C=C(\O)c1ccco1 | inconclusive: 3.55 µM [inhibitor, partial curve]
19 | COc1ccc(C(=O)NNC(=O)c2cc3ccccc3cc2O)cc1 | inconclusive: 14.1 µM [inhibitor, single point]
20 | Cc1ccc2cc(CN(C(=O)c3cccs3)c3ccccc3)c(=O)[nH]c2c1 | inactive
21 | CCN1/C(=C/c2ccc3cc(C)cc(C)c3[n+]2CC)Sc2cc(C)ccc21 | inconclusive: 3.16 µM [inhibitor, full curve, poor fit]
22 | CC1(C)CC(N2CCN(C(c3ccccc3)c3ccccc3)CC2)=CC(=[N+]2CCCCC2)C1 | active: 1.12 µM

From entry 3 to 22, copied from above:
Row | SMILES | Potency
3 | CCN1C(=O)[C@H]2[C@@H](c3ccc(-c4ccc(C(C)=O)cc4)c(OC)c3)N[C@@](Cc3ccccc3)(C(=O)OC)[C@H]2C1=O | inconclusive: 3.98 µM [inhibitor, partial curve, poor fit]
4 | COc1cc(C(=O)NCC(=O)N2CCN(S(=O)(=O)c3cc(C)ccc3C)CC2)cc(OC)c1OC | active: 2.24 µM
5 | C[C@]12c3[nH]c4cc(-c5ccco5)ccc4c3CCN1C(=O)[C@@H](CC(=O)NCCc1ccccn1)C[C@@H]2C(=O)N1CCCCC1 | inconclusive: 11.2 µM [inhibitor, partial curve, poor fit]
6 | O=C(NNC(=O)c1ccncc1)Nc1ccc([N+](=O)[O-])cc1 | inactive
7 | CC(=O)c1sc(NC(=O)C2COc3ccccc3O2)nc1C (stereo unspecified) | inconclusive: 11.2 µM [inhibitor, partial curve, poor fit]
8 | COc1c(OC(C)=O)ccc(/C=C/c2ccc3cccc(OC)c3n2)c1[N+](=O)[O-] | inactive
9 | O=C1/C(=C/c2ccc(Cl)cc2)SC(=S)N1CCC(=O)N1CCCCC1CCO (stereo unspecified) | inconclusive: 6.31 µM [inhibitor, partial curve, poor fit]
10 | COc1ccc(C(=O)CCC(=O)N2CCN(c3ccc(C)cc3)C(C)C2)cc1 (stereo unspecified) | inactive
11 | CCC(C(=O)NCc1ccccc1OC)c1ccccc1 (stereo unspecified) | inconclusive: 6.31 µM [inhibitor, partial curve, poor fit]
12 | Cc1[nH]c2ccccc2c1C(=O)CSC(=S)N1CCN(C)CC1 | inconclusive: 1.12 µM [inhibitor, full curve, poor fit]
13 | C=CCNC(=S)Nc1sc2c(c1C#N)CCCC2 | inactive
14 | COc1cc(OC)cc(C(=O)N[C@H](C(=O)Nc2nc3c(s2)CCCC3)C(C)C)c1 | inconclusive: 8.91 µM [inhibitor, single point]
15 | O=C(/C=C/c1ccccc1)Nc1cccc(C(=O)NCCc2ccccc2)c1 | inconclusive: 10 µM [inhibitor, single point]
16 | Cc1ccc(-c2nc(CSCC(=O)N3CCN(c4ccccn4)CC3)c(C)o2)cc1 | inconclusive: 28.2 µM [inhibitor, single point]
17 | Cc1cc2nc(C3CCN(CC4COc5ccccc5O4)CC3)[nH]c2cc1C (stereo unspecified) | inconclusive: 12.6 µM [inhibitor, single point]
18 | O=c1oc2ccc(Cl)cc2nc1/C=C(\O)c1ccco1 | inconclusive: 3.55 µM [inhibitor, partial curve]
19 | COc1ccc(C(=O)NNC(=O)c2cc3ccccc3cc2O)cc1 | inconclusive: 14.1 µM [inhibitor, single point]
20 | Cc1ccc2cc(CN(C(=O)c3cccs3)c3ccccc3)c(=O)[nH]c2c1 | inactive
21 | CCN1/C(=C/c2ccc3cc(C)cc(C)c3[n+]2CC)Sc2cc(C)ccc21 | inconclusive: 3.16 µM [inhibitor, full curve, poor fit]
22 | CC1(C)CC(N2CCN(C(c3ccccc3)c3ccccc3)CC2)=CC(=[N+]2CCCCC2)C1 | active: 1.12 µM

The listing continues.

Row | SMILES | Potency
23 | Cc1ccc(C)c(NC(=O)CN(C)C(=O)c2cccc(-n3cccc3)c2)c1 | inactive
24 | Cc1ccc(OCCC(=O)Nc2ccc(C)c(F)c2)cc1 | inconclusive: 10 µM [inhibitor, partial curve, poor fit]
25 | O=C(CCN1C(=O)/C(=C\C=C\c2ccccc2)SC1=S)Nc1ccc(C(=O)O)cc1 | inconclusive: 28.2 µM [inhibitor, single point]
26 | CCC(CO)n1c(=S)[nH]c2cc(OC)c(OC)cc2c1=O (stereo unspecified) | inconclusive: 8.91 µM [inhibitor, partial curve, poor fit]
27 | O=S(=O)(Nc1ncccn1)c1ccc(NC(=S)Nc2ccc(Cl)cc2)cc1 | inconclusive: 12.6 µM [inhibitor, partial curve, poor fit]
28 | C#CCNC(=O)C1=C[C@@H](C2CCCCC2)C[C@@H](OCc2ccc(CO)cc2)O1 | inactive
29 | Cc1ccc(OCC(=O)N/N=C/c2ccc3c(c2)OCO3)cc1C | inconclusive: 8.91 µM [inhibitor, partial curve, poor fit]
30 | C=C(C)c1cccc(C(C)(C)NC(=O)N2CCCCC2CC)c1 (stereo unspecified) | inactive
31 | Cc1noc(C)c1CSCC(=O)Nc1ccc(Br)cc1Cl | inconclusive: 10 µM [inhibitor, partial curve, poor fit]
32 | Cc1cc(C)c2nc(NCCCNC(=S)NCCCN(C)C)c(C#N)cc2c1 | inconclusive: 28.2 µM [inhibitor, single point]
33 | Cc1ccc(NC(=O)c2ccc(C)cc2)cc1 | active: 2.82 µM
34 | Cc1nc2c(C)cccc2cc1C(=O)N/N=C/c1ccc(N(C)C)cc1 | inconclusive: 12.6 µM [inhibitor, single point]
35 | O=C(O)CC1CCC(=C(Cl)Cl)C1 (stereo unspecified) | inconclusive: 10 µM [inhibitor, single point]
36 | CC(=O)N1CCN=C1SCc1ccc(Cl)cc1 | inconclusive: 10 µM [inhibitor, partial curve, poor fit]
37 | O=S(=O)(Nc1c(O)ccc2ccccc12)c1ccccc1 | inconclusive: 11.2 µM [inhibitor, partial curve, poor fit]
38 | COC(=O)Cn1cnc2c(Cl)nc(F)nc21 | inconclusive: 11.2 µM [inhibitor, single point]
39 | Cc1ccc(F)c([C@H]2[C@H]3C=CC[C@@H](C)[C@@H]3C(=O)N2Cc2ccccc2)c1 | inconclusive: 7.94 µM [inhibitor, partial curve, poor fit]
40 | CS(=O)(=O)N(CC(=O)Nc1ccc(CC#N)cc1)c1ccc(C23CC4CC(CC(C4)C2)C3)cc1 | inconclusive: 6.31 µM [inhibitor, partial curve, poor fit]
41 | CCN(CC)CCNC(=O)c1ccc(NC(=O)COc2ccc3c(c2)CCC3)cc1 | inconclusive: 12.6 µM [inhibitor, single point]
42 | C=CS(=O)(=O)N(Cc1ccc(Cl)c(Cl)c1)C[C@@H](O)CO | active: 3.55 µM
43 | COc1ccc(-c2coc3cc(O)c(OC)cc3c2=O)cc1 | inconclusive: 3.55 µM [inhibitor, partial curve]
44 | COc1cccc(/C=N/NC(=O)CSc2cccc3cccnc23)c1 | inconclusive: 11.2 µM [inhibitor, single point]

Row | SMILES | Potency
45 | COc1ccc(-c2cc(-c3c(O)c(OC)c4occc4c3OC)[nH]n2)cc1OC | inactive
46 | COc1ccc(-c2noc(N3CCC(C(=O)NCCCN4CCCC(C)C4)CC3)n2)cc1 (stereo unspecified) | inconclusive: 2.24 µM [inhibitor, partial curve, poor fit]
47 | C=CCn1c(SCC(=O)NC2CCS(=O)(=O)C2)nnc1-c1ccc(Cl)cc1 (stereo unspecified) | inactive
48 | COc1cccc(NC(=O)CN(C)C(=O)CN2C(=O)NC(C)(c3ccc(C)cc3)C2=O)c1 (stereo unspecified) | inconclusive: 3.55 µM [inhibitor, full curve, poor fit]
49 | O=C(Nc1ccc(Cl)c(Cl)c1)c1ccc(Cn2cc(Cl)cn2)cc1 | inconclusive: 12.6 µM [inhibitor, single point]
50 | CCn1c(SCC(=O)Nc2nc(-c3ccccc3)cs2)nc2c1c(=O)n(C)c(=O)n2C | inactive
51 | O=C(N/N=C/c1ccc2c(c1)OCO2)c1cccc2ccccc12 | inactive
52 | Cc1ccc2nc(NC(=O)CCn3cccc3)sc2c1 | inconclusive: 8.91 µM [inhibitor, partial curve, poor fit]
53 | O=C(c1ccco1)N1CCN(CCOCCOc2cccc3ccccc23)CC1 | inactive
54 | Cc1cccc(C)c1OCCN1CCOCC1 | inconclusive: 31.6 µM [inhibitor, single point]
55 | CC(Sc1nc2ccccc2c(=O)n1C)C(=O)N(C)C1CCCCC1 (stereo unspecified) | inconclusive: 6.31 µM [inhibitor, partial curve, poor fit]
56 | CC(=N\NC(=O)c1cc(Br)ccc1O)/C(=N/O)C(=O)Nc1ccccc1 | inconclusive: 8.91 µM [inhibitor, single point]
57 | Cc1ccc(CS(=O)Cc2ccc(C(=O)N3CCN(c4ccc(F)cc4)CC3)o2)cc1 (stereo unspecified) | inactive
58 | COc1ccc(CCNC(=O)c2ccc(Cl)cc2Cl)cc1OC | inactive
59 | Cc1ccc2cc(/C=N/Nc3ccc(C(=O)O)cc3)c(Cl)nc2c1 | inconclusive: 8.91 µM [inhibitor, single point]
60 | N=c1n(Cc2ccccc2)c2ccccc2n1CC(O)c1ccco1 (stereo unspecified) | inactive
61 | O=C1c2ccc([N+](=O)[O-])cc2NC(c2ccco2)N1/N=C/c1ccco1 (stereo unspecified) | inactive
62 | C[C@@H]1C[C@@H]2OC(=O)[C@]3(C)[C@H]2[C@@H](OC3(C)O)[C@]2(C)C(=O)C=C[C@H]12 (stereo partly specified) | inconclusive: 3.16 µM [inhibitor, partial curve]
63 | Cn1c(=O)c2c(nc(NCc3cccnc3)n2Cc2ccccc2Cl)n(C)c1=O | inconclusive: 1.26 µM [inhibitor, partial curve, poor fit]
64 | Cc1ccc(NC(=O)COc2coc(CN3CCc4ccccc4C3)cc2=O)c(C)c1 | inactive
65 | CC[n+]1c(C)sc2cc(C)ccc21 | inactive
66 | COCc1ccc(C(=O)N(C)CC2CCCN(CCc3ccc(Cl)cc3)C2)o1 (stereo unspecified) | inconclusive: 12.6 µM [inhibitor, single point]

Source: PubChem BioAssay AID540303 (National Center for Advancing Translational Sciences (NCATS), 2011)
